In the supplement of paper PMC4604168 (melanoma cell lines):
Some of the results follow. Repeats are few or missing, and single values can be far off.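 Cells were imaged in 1,536-well plates, and nuclei stained with an antibody against cleaved PARP were counted against all DNA-stained nuclei to give the apoptosis fraction. Screening doses were chosen to leave most cells alive, and resting and induced cleaved-PARP levels differ strongly between cell lines.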

These molecules were tested on SkMel30 (assay: cleaved PARP positive nuclei fraction relative to DMSO control; melanoma cells; higher = more apoptosis). Conditions: library dose: low library concentration; 72 h.

Row | Structure (SMILES) | cleaved PARP positive nuclei fraction [%]
1 | Cc1cn(-c2cc(NC(=O)c3ccc(C)c(Nc4nccc(-c5cccnc5)n4)c3)cc(C(F)(F)F)c2)cn1 [nilotinib] + CNC(=O)c1cc(Oc2ccc(NC(=O)Nc3ccc(Cl)c(C(F)(F)F)c3)cc2)ccn1 [sorafenib] (first compound 0.2 µM, partner dose 0.4 µM) | 67
2 | O=c1[nH]nc(Sc2ncc([N+](=O)[O-])s2)n1-c1ccc2c(c1)OCCO2 + Nc1nc(F)nc2c1ncn2[C@@H]1O[C@H](CO)[C@@H](O)[C@@H]1O [fludarabine] (first compound 0.2 µM, partner dose 0.2 µM) | 1520
3 | Cc1cn(-c2cc(NC(=O)c3ccc(C)c(Nc4nccc(-c5cccnc5)n4)c3)cc(C(F)(F)F)c2)cn1 [nilotinib] + CCCS(=O)(=O)Nc1ccc(F)c(C(=O)c2c[nH]c3ncc(Cl)cc23)c1F [PLX4720] (first compound 0.2 µM, partner dose 0.08 µM) | 133
4 | O=C(Nc1cc(C(F)(F)F)cc(C(F)(F)F)c1)c1cc(Cl)ccc1O + CC(=O)O[C@@]12CO[C@@H]1C[C@H](O)[C@@]1(C)C(=O)[C@H](O)C3=C(C)[C@@H](OC(=O)[C@H](O)[C@@H](NC(=O)OC(C)(C)C)c4ccccc4)C[C@@](O)([C@@H](OC(=O)c4ccccc4)[C@H]21)C3(C)C [Docetaxel] (first compound 0.016 µM, partner dose 0.0001 µM) | 368
5 | O=C(/C=C/c1cccnc1)NCCCCC1CCN(C(=O)c2ccccc2)CC1 + Nc1nc(F)nc2c1ncn2[C@@H]1O[C@H](CO)[C@@H](O)[C@@H]1O [fludarabine] (first compound 0.01 µM, partner dose 0.2 µM) | 572
6 | N#CC[C@H](C1CCCC1)n1cc(-c2ncnc3[nH]ccc23)cn1 [ruxolitinib] + NC1(c2ccc(-c3nc4ccn5c(=O)[nH]nc5c4cc3-c3ccccc3)cc2)CCC1 [MK2206] (first compound 1 µM, partner dose 0.4 µM) | 81.6
7 | CCCCCCCCCCCCCCCCCCOP(=O)([O-])OC1CC[N+](C)(C)CC1 [Perifosine] + Cn1c(=O)n(-c2ccc(C(C)(C)C#N)cc2)c2c3cc(-c4cnc5ccccc5c4)ccc3ncc21 [NVP-BEZ235] (first compound 0.4 µM, partner dose 0.004 µM) | 79
8 | CC[C@]1(O)C[C@H]2CN(CCc3c([nH]c4ccccc34)[C@@](C(=O)OC)(c3cc4c(cc3OC)N(C=O)[C@H]3[C@@](O)(C(=O)OC)[C@H](OC(C)=O)[C@]5(CC)C=CCN6CC[C@]43[C@@H]65)C2)C1 [vincristine] + CC(=O)O[C@@]12CO[C@@H]1C[C@H](O)[C@@]1(C)C(=O)[C@H](O)C3=C(C)[C@@H](OC(=O)[C@H](O)[C@@H](NC(=O)OC(C)(C)C)c4ccccc4)C[C@@](O)([C@@H](OC(=O)c4ccccc4)[C@H]21)C3(C)C [Docetaxel] (first compound 0.0001 µM, partner dose 0.0001 µM) | 362
9 | CCCCCCCCCCCCCCCCCCOP(=O)([O-])OC1CC[N+](C)(C)CC1 [Perifosine] + CO[C@H]1C[C@@H]2CC[C@@H](C)[C@@](O)(O2)C(=O)C(=O)N2CCCC[C@H]2C(=O)O[C@H]([C@H](C)C[C@@H]2CC[C@@H](OCCO)[C@H](OC)C2)CC(=O)[C@H](C)/C=C(\C)[C@@H](O)[C@@H](OC)C(=O)[C@H](C)C[C@H](C)/C=C/C=C/C=C/1C [everolimus] (first compound 0.4 µM, partner dose 0.02 µM) | 116
10 | Cc1ccc(Nc2nccc(N(C)c3ccc4c(C)n(C)nc4c3)n2)cc1S(N)(=O)=O [Pazopanib] + CS(=O)(=O)CCNCc1ccc(-c2ccc3ncnc(Nc4ccc(OCc5cccc(F)c5)c(Cl)c4)c3c2)o1 [lapatinib] (first compound 0.4 µM, partner dose 0.8 µM) | 118
11 | N#CC[C@H](C1CCCC1)n1cc(-c2ncnc3[nH]ccc23)cn1 [ruxolitinib] + C[C@]1(c2nc3c(C(N)=O)cccc3[nH]2)CCCN1 [Veliparib] (first compound 1 µM, partner dose 1.4 µM) | 53.3
12 | CC[C@]1(O)C[C@H]2CN(CCc3c([nH]c4ccccc34)[C@@](C(=O)OC)(c3cc4c(cc3OC)N(C=O)[C@H]3[C@@](O)(C(=O)OC)[C@H](OC(C)=O)[C@]5(CC)C=CCN6CC[C@]43[C@@H]65)C2)C1 [vincristine] + Cn1cnc2c(F)c(Nc3ccc(Br)cc3Cl)c(C(=O)NOCCO)cc21 [selumetinib] (first compound 0.0001 µM, partner dose 0.015 µM) | 107
13 | CC[C@]1(O)C[C@H]2CN(CCc3c([nH]c4ccccc34)[C@@](C(=O)OC)(c3cc4c(cc3OC)N(C=O)[C@H]3[C@@](O)(C(=O)OC)[C@H](OC(C)=O)[C@]5(CC)C=CCN6CC[C@]43[C@@H]65)C2)C1 [vincristine] + Nc1cccc2c1CN(C1CCC(=O)NC1=O)C2=O [lenalidomide] (first compound 0.0001 µM, partner dose 1 µM) | 294
14 | N#CC[C@H](C1CCCC1)n1cc(-c2ncnc3[nH]ccc23)cn1 [ruxolitinib] + CCN(CC)CCNC(=O)c1c(C)[nH]c(/C=C2\C(=O)Nc3ccc(F)cc32)c1C [sunitinib] (first compound 1 µM, partner dose 0.4 µM) | 64
15 | COc1cc([C@@H]2c3cc4c(cc3[C@@H](O[C@@H]3O[C@@H]5CO[C@@H](C)O[C@H]5[C@H](O)[C@H]3O)[C@H]3COC(=O)[C@H]23)OCO4)cc(OC)c1O [etoposide] + O=C(/C=C/c1cccnc1)NCCCCC1CCN(C(=O)c2ccccc2)CC1 [FK866] (first compound 0.02 µM, partner dose 0.01 µM) | 16
16 | O=c1[nH]nc(Sc2ncc([N+](=O)[O-])s2)n1-c1ccc2c(c1)OCCO2 + CC(=O)O[C@@]12CO[C@@H]1C[C@H](O)[C@@]1(C)C(=O)[C@H](O)C3=C(C)[C@@H](OC(=O)[C@H](O)[C@@H](NC(=O)OC(C)(C)C)c4ccccc4)C[C@@](O)([C@@H](OC(=O)c4ccccc4)[C@H]21)C3(C)C [Docetaxel] (first compound 0.2 µM, partner dose 0.0001 µM) | 949
17 | N#CC[C@H](C1CCCC1)n1cc(-c2ncnc3[nH]ccc23)cn1 [ruxolitinib] + NC(=O)c1ccc(N(C(N)=O)c2c(F)cccc2F)nc1-c1ccc(F)cc1F [VX702] (first compound 1 µM, partner dose 0.4 µM) | 36.5
18 | N#CC[C@H](C1CCCC1)n1cc(-c2ncnc3[nH]ccc23)cn1 [ruxolitinib] + Cn1sc(=O)n(Cc2ccccc2)c1=O [TDZD-8] (first compound 1 µM, partner dose 0.4 µM) | 77.8
19 | CC[C@]1(O)C[C@H]2CN(CCc3c([nH]c4ccccc34)[C@@](C(=O)OC)(c3cc4c(cc3OC)N(C=O)[C@H]3[C@@](O)(C(=O)OC)[C@H](OC(C)=O)[C@]5(CC)C=CCN6CC[C@]43[C@@H]65)C2)C1 [vincristine] + C[C@@H](Oc1cc(-c2cnn(C3CCNCC3)c2)cnc1N)c1c(Cl)ccc(F)c1Cl [Crizotinib] (first compound 0.0001 µM, partner dose 0.2 µM) | 97.3
20 | O=c1[nH]nc(Sc2ncc([N+](=O)[O-])s2)n1-c1ccc2c(c1)OCCO2 + CN(c1ncccc1CNc1nc(Nc2ccc3c(c2)CC(=O)N3)ncc1C(F)(F)F)S(C)(=O)=O [PF562271] (first compound 0.2 µM, partner dose 0.08 µM) | 37
21 | O=C(Nc1cc(C(F)(F)F)cc(C(F)(F)F)c1)c1cc(Cl)ccc1O + Nc1ccn([C@@H]2O[C@H](CO)[C@@H](O)C2(F)F)c(=O)n1 [gemcitabine] (first compound 0.016 µM, partner dose 0.0004 µM) | 92.4
22 | COc1cc([C@@H]2c3cc4c(cc3[C@@H](O[C@@H]3O[C@@H]5CO[C@@H](C)O[C@H]5[C@H](O)[C@H]3O)[C@H]3COC(=O)[C@H]23)OCO4)cc(OC)c1O [etoposide] + CCCS(=O)(=O)Nc1ccc(F)c(C(=O)c2c[nH]c3ncc(Cl)cc23)c1F [PLX4720] (first compound 0.02 µM, partner dose 0.08 µM) | 99.2
23 | CC[C@]1(O)C[C@H]2CN(CCc3c([nH]c4ccccc34)[C@@](C(=O)OC)(c3cc4c(cc3OC)N(C=O)[C@H]3[C@@](O)(C(=O)OC)[C@H](OC(C)=O)[C@]5(CC)C=CCN6CC[C@]43[C@@H]65)C2)C1 [vincristine] + Cn1c(=O)n(-c2ccc(C(C)(C)C#N)cc2)c2c3cc(-c4cnc5ccccc5c4)ccc3ncc21 [NVP-BEZ235] (first compound 0.0001 µM, partner dose 0.004 µM) | 662
24 | COc1cc([C@@H]2c3cc4c(cc3[C@@H](O[C@@H]3O[C@@H]5CO[C@@H](C)O[C@H]5[C@H](O)[C@H]3O)[C@H]3COC(=O)[C@H]23)OCO4)cc(OC)c1O [etoposide] + CN(c1ncccc1CNc1nc(Nc2ccc3c(c2)CC(=O)N3)ncc1C(F)(F)F)S(C)(=O)=O [PF562271] (first compound 0.02 µM, partner dose 0.08 µM) | 119

Rewritten as labelled records: part of the list above.
Cc1cn(-c2cc(NC(=O)c3ccc(C)c(Nc4nccc(-c5cccnc5)n4)c3)cc(C(F)(F)F)c2)cn1 [nilotinib] + CNC(=O)c1cc(Oc2ccc(NC(=O)Nc3ccc(Cl)c(C(F)(F)F)c3)cc2)ccn1 [sorafenib] (first compound 0.2 µM, partner dose 0.4 µM)
  cleaved PARP positive nuclei fraction [%]: 67
O=c1[nH]nc(Sc2ncc([N+](=O)[O-])s2)n1-c1ccc2c(c1)OCCO2 + CN(c1ncccc1CNc1nc(Nc2ccc3c(c2)CC(=O)N3)ncc1C(F)(F)F)S(C)(=O)=O [PF562271] (first compound 0.2 µM, partner dose 0.08 µM)
  cleaved PARP positive nuclei fraction [%]: 37
